Among the data in PMC7819943, “Rice protein-binding microarrays: a tool to detect cis-acting elements near promoter regions in rice” are binding signal values, retold here.

This is one part of the list.

This assay addresses T1, OsSMF1 (Oryza sativa, UniProt Q6ZLB0 1-436).
T1 sequence: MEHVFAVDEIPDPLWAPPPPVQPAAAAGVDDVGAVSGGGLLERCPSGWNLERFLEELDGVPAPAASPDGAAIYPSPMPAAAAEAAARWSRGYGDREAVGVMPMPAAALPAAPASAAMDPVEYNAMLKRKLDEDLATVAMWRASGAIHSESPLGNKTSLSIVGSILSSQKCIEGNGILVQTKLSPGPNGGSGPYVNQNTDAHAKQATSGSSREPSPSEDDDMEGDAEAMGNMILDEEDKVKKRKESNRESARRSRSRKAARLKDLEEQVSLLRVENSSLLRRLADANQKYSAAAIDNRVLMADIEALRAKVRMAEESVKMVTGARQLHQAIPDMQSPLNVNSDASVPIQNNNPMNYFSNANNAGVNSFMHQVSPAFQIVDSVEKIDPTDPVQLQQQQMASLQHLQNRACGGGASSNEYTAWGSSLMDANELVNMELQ
Put plainly: protein-binding microarray (RPBM); PBS, 2% BSA, 51.3 ng/ul salmon testes DNA, 50 uM zinc acetate, 200 nM TF, 25 C, 1 h; high values mean tight binding. As to conditions: protein: recombinant; tags: N-terminal polyhistidine and DsRed monomer fusion (pET32a); chain copies: 2; label: CyDye5-dUTP incorporated in the synthesized complementary strand; 3' TTTTT single-stranded linker to array surface; dsDNA, one strand shown. In short, it runs like this:
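Binding signal here means per-feature fluorescence intensity in arbitrary units. The values were read on an Axon 4000B scanner after a custom Agilent array, double-stranded by primer extension with Cy5-dUTP, was incubated with 200 nM protein at 25 °C for 1 h in PBS with 2% BSA, salmon testes DNA and 50 µM zinc acetate, then washed. The proteins were transcription factors with an N-terminal polyhistidine tag and DsRed, expressed in E. coli BL21-CodonPlus and purified on Ni–NTA.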
For the sequence “AATTAGAAACTCTCCCAACTAATACAGTGTTTATTCCAGACGGAGTCACCTAGTGCAG”, the binding signal was 25900 fluorescence intensity (a.u.).
The figure for “TCCGGAGAAGAAGGGTTGGAGAGAGAGGATGACATGTGGGCGGAGTCACCTAGTGCAG” is 4010 fluorescence intensity (a.u.); for “TACGACATGTCATTGGCCATGTCTATCTGACTTTACGTCACGGAGTCACCTAGTGCAG” it is 4700 fluorescence intensity (a.u.); for “TACGCGACGAATACGTGGGGTCGTGGGCCGCTTTTGCCCGCGGAGTCACCTAGTGCAG” it is 3980 fluorescence intensity (a.u.).
The figure for “GAGGTGGCGTGGCGGAGGTCGTCGAAGGAGATGGGGCTCTCGGAGTCACCTAGTGCAG” is 26400 fluorescence intensity (a.u.).
The figure for “AAAGTGATCCAGTTTTACAAGATTATGGATGCGCTATATCCGGAGTCACCTAGTGCAG” is 38600 fluorescence intensity (a.u.).
Turning to “GGGAGGGCGGCGGTGAACCATCTGCTCGAGCAAACGCGGACGGAGTCACCTAGTGCAG”, the binding signal is 5970 fluorescence intensity (a.u.).
The figure for “GAAAATGCCACCAAACACGCCCCTCGCGTTTGACGAGATTCGGAGTCACCTAGTGCAG” is 3360 fluorescence intensity (a.u.); for “AACAGAAAGGACAAGACGGGAGGGAACGGATTCTTACTCTCGGAGTCACCTAGTGCAG” it is 4250 fluorescence intensity (a.u.).
The figure for “TCAACGTAGTATTTGATGGTGACGTATCATAGTCTCTGTTCGGAGTCACCTAGTGCAG” is 9860 fluorescence intensity (a.u.); for “GATTTTATTCTATATGGCATACGCATGACAATCTAGTCAGCGGAGTCACCTAGTGCAG” it is 3440 fluorescence intensity (a.u.).
The figure for “GGCGCCCTTGCGAGCACGTAATCCCGGCCCGGTCACCCAACGGAGTCACCTAGTGCAG” is 3920 fluorescence intensity (a.u.); for “AGTGCTACGTATGCGTCACATCAACGAAACCGCCCTCTAACGGAGTCACCTAGTGCAG” it is 7480 fluorescence intensity (a.u.); for “TTCCCTCTTAGAGACGTGGATGCTCCAACAGTTGAACCAGCGGAGTCACCTAGTGCAG” it is 3930 fluorescence intensity (a.u.).
For the sequence “AAATATGAATTATGACGTAGATTGTGTTGATTTCCTTTTGCGGAGTCACCTAGTGCAG”, the binding signal is 5170 fluorescence intensity (a.u.).
The figure for “TGCTTCATTGTATTGTCTATATATAGTTGATTATAAGCCACGGAGTCACCTAGTGCAG” is 3820 fluorescence intensity (a.u.); for “AACCTCGATAAGTCAGTGTAGTCTAGGCGGTGACGACTCCCGGAGTCACCTAGTGCAG” it is 3220 fluorescence intensity (a.u.); for “TTTGGTGCGAGCGAAATACCAGGATCTTTATACACATAGCCGGAGTCACCTAGTGCAG” it is 58000 fluorescence intensity (a.u.).
The figure for “AGCTCTAGTTATCTGAGTATGACATGTGGGACCTAAGAGTCGGAGTCACCTAGTGCAG” is 3600 fluorescence intensity (a.u.); for “TTCCCCAACTAAACACACCCTTTATCTCTTACCCTCTGGCCGGAGTCACCTAGTGCAG” it is 3190 fluorescence intensity (a.u.).
With “AGGGCGGCAAGCTGACATGGCAGACGACGGCTCGACGGCGCGGAGTCACCTAGTGCAG”, the binding signal is 6550 fluorescence intensity (a.u.).
For the sequence “GGTTGGGAACATGGACAACCGAACATAGTTCTTGGCCATGCGGAGTCACCTAGTGCAG”, the binding signal was 30000 fluorescence intensity (a.u.).
The figure for “TTAAGTACCCGGATATGACTGATAGGCCACGTATCCGTATCGGAGTCACCTAGTGCAG” is 5060 fluorescence intensity (a.u.).
The figure for “TCGTGTTGTGTCTTGTATATGCTGCTGATCTGAAGATATGCGGAGTCACCTAGTGCAG” is 5330 fluorescence intensity (a.u.).
On to “GCATATCTCAGACCATATGAATTGTGTTGAGCTGGCGGTTCGGAGTCACCTAGTGCAG”, for which the binding signal is 4430 fluorescence intensity (a.u.).
As for “TGACTCTTCTACACCTTCCAGGCTATCCGGAATCGGGAGGCGGAGTCACCTAGTGCAG”, the binding signal was 3260 fluorescence intensity (a.u.).
The figure for “TTCGCCTCCACCTTCATCTGCTCCACCTGCGTCACAGTCACGGAGTCACCTAGTGCAG” is 3820 fluorescence intensity (a.u.); for “CCTCCTCTCCTTGCAGGCGCCACGCCGCCTTTCCATCCCGCGGAGTCACCTAGTGCAG” it is 3240 fluorescence intensity (a.u.).
The figure for “ATCTGCTTCGATGCTCACCCGTGCAGAATTGCACACGTGTCGGAGTCACCTAGTGCAG” is 9170 fluorescence intensity (a.u.).
The figure for “ACAATGCCGCACACACGCAGCGGTAGCATAGCCACAGCCGCGGAGTCACCTAGTGCAG” is 23300 fluorescence intensity (a.u.); for “GGCCCGCTCCAATGAGAAGTGGACTCGGAGCGGGATTCCCCGGAGTCACCTAGTGCAG” it is 3310 fluorescence intensity (a.u.).
As to “ACTACTTGGGCATTACCTGCTCCACGTGGCCCATATAATACGGAGTCACCTAGTGCAG”, the binding signal is 7040 fluorescence intensity (a.u.).
“ATATACTATTCTCATCTGTCATACACACATCACATCTTGACGGAGTCACCTAGTGCAG”: the binding signal is 25700 fluorescence intensity (a.u.).
In the case of “CTTCTCCTCTCCCCTTGCTCAGTTCATTCAGTTGGCCTCCCGGAGTCACCTAGTGCAG”, the binding signal is 24900 fluorescence intensity (a.u.).
The figure for “GCGCATCAACAACCTTGTCGTCCATATTGGTCATCGTCAGCGGAGTCACCTAGTGCAG” is 4960 fluorescence intensity (a.u.); for “AAGGCATTGAATCTTACTGCCAACACATCCACCACAGCCTCGGAGTCACCTAGTGCAG” it is 5350 fluorescence intensity (a.u.); for “ACTAGTGACCCTAATTTTCGGTTCGATATTTGAAATTTCCCGGAGTCACCTAGTGCAG” it is 3240 fluorescence intensity (a.u.).
The figure for “ACACACACACACGTAAGTACCCATAACTCCATAAGAATAGCGGAGTCACCTAGTGCAG” is 3150 fluorescence intensity (a.u.); for “CAAATCTCATGTCATCTTCTCGAAGTGAGCTCCGATGACTCGGAGTCACCTAGTGCAG” it is 3740 fluorescence intensity (a.u.); for “CCATCAACGAGCACATCTTCTCCACGGTGGACGGCATCATCGGAGTCACCTAGTGCAG” it is 5760 fluorescence intensity (a.u.).
The figure for “GATTCCCTCCGCCGCCACCCGCGAGAGGGAGACGCCGGCGCGGAGTCACCTAGTGCAG” is 3200 fluorescence intensity (a.u.); for “ATAATTTGGTGTTACAGTAAACATTTGCTAATAATGGATTCGGAGTCACCTAGTGCAG” it is 49500 fluorescence intensity (a.u.).
